Here are results for 17 molecules from PubChem BioAssay AID252 (DTP/NCI, 2004).

The list does not hold the whole screen: it gathers tests that were run many times, whatever their T/C, doses with no T/C, and many T/C values between a quarter and a half above the control. Other doses and runs of a compound stand elsewhere. T/C: endpoint of the treated group in % of that of the vehicle group. Some entries give survivors of the animals treated and no T/C: the source holds a T/C of zero for them, seemingly a mark for toxic or unscored doses. Some doses without a T/C left all or most animals alive at the check, yet need not have been tolerated: the source hardly ever lists a survival T/C far under the control, and the zero likely stands for such cases as well. Survivors were counted at the toxicity check, usually on the fifth day, unless a day is given; later deaths do not show. Schedule codes are those of the source, read here as Q, the interval in days (D) or hours (H), X, the number of doses. Some schedules carry Z or #; the key to these is not given. Some entries were tested several times; their values stand side by side, smallest first. Where survival is the endpoint, the PubChem record calls one and a half times the control and up active, and a quarter to a half above the control has no call in these data; cut-offs in other NCI protocols can differ. Some T/C values carry the count of animals alive at the toxicity check (mostly the fifth day); without a count, all were alive then.

For this assay, the system named is BDF1 mice, intracerebral L1210 leukemia, survival T/C. In words: NCI In Vivo Anticancer Drug Screen. Data for tumor model L1210 Leukemia (intracerebral) in B6D2F1 (BDF1) mice. The following applies: higher T/C = longer survival. The procedure, abridged: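 Readout is the T/C ratio: survival of compound-treated animals over that of vehicle-treated controls, in mice bearing transplantable tumour.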

[1] abbreviates: T/C endpoint: mean survival time, dose: 4.0 mg/kg/injection, schedule: Q01DX009 (ip), vehicle: saline.
The mark [2] stands for this setting: T/C endpoint: mean survival time, dose: 8.0 mg/kg/injection, schedule: Q01DX009 (ip), vehicle: saline.

As for `O=NN(CCCl)C(=O)Nc1ccc(CC(=O)O)cc1`, the T/C (T/C endpoint: mean survival time, dose: 20.0 mg/kg/injection, schedule: Q01DX001 (ip), vehicle: carboxymethylcellulose (CMC)) is 138 % of control. Further, the survivor count runs as follows: (T/C endpoint: mean survival time, dose: 40.0 mg/kg/injection, schedule: Q01DX001 (ip), vehicle: carboxymethylcellulose (CMC)) 4 of 10; (T/C endpoint: mean survival time, dose: 60.0 mg/kg/injection, schedule: Q01DX001 (ip), vehicle: carboxymethylcellulose (CMC)) 3 of 10; (T/C endpoint: mean survival time, dose: 90.0 mg/kg/injection, schedule: Q01DX001 (ip), vehicle: carboxymethylcellulose (CMC)) 2 of 10.
With `CC(Cl)CNC(=O)N(CC(C)Cl)N=O` (stereo unspecified), the T/C (T/C endpoint: mean survival time, dose: 750.0 mg/kg/injection, schedule: Q01DX001 (ip), vehicle: carboxymethylcellulose (CMC)) is 133 % of control [5 of 6 alive].
For the molecule `S=P(N1CC1)(N1CC1)N1CC1`, where the note is “T/C endpoint: mean survival time, dose: 23.0 mg/kg/injection, schedule: Q01DX001 (ip), vehicle: saline”, the T/C was 133 % of control [9 of 10 alive].
Regarding `CC(C)(C)C1CCC(NC(=O)N(CCCl)N=O)CC1` (stereo unspecified), the T/C (T/C endpoint: mean survival time, dose: 750.0 mg/kg/injection, schedule: Q01DX001 (ip), vehicle: other) was 143 % of control [9 of 10 alive]. Moreover, the survivor count (T/C endpoint: mean survival time, dose: 944.0 mg/kg/injection, schedule: Q01DX001 (ip), vehicle: other) is reported as 5 of 6.
As for `CNC1=C(N2CC2)C(=O)C(NC)=C(N2CC2)C1=O`, for the setting “T/C endpoint: mean survival time, dose: 0.4 mg/kg/injection, schedule: Q01DX009 (ip), vehicle: saline”, the T/C was 144 % of control. For the same molecule, where the note is “T/C endpoint: mean survival time, dose: 0.8 mg/kg/injection, schedule: Q01DX009 (ip), vehicle: saline”, the survivor count is reported as 4 of 6.
As to `CCn1cnc2c(SC(C)C)ncnc21`, the T/C (T/C endpoint: mean survival time, dose: 125.0 mg/kg/injection, schedule: Q01DX Z (ip), vehicle: carboxymethylcellulose (CMC)) is 125 % of control.
On to `Nc1ncn(C2OC(CO)C(O)C2O)c(=O)n1` (stereo unspecified), for which the T/C reads like this: (T/C endpoint: mean survival time, dose: 40.0 mg/kg/injection, schedule: Q01DX001 (ip), vehicle: saline) 132 % of control [9 of 10 alive]; (T/C endpoint: mean survival time, dose: 55.0 mg/kg/injection, schedule: Q01DX001 (ip), vehicle: saline) 135 % of control; (T/C endpoint: mean survival time, dose: 70.0 mg/kg/injection, schedule: Q01DX001 (ip), vehicle: saline) 139 % of control [9 of 10 alive]; (T/C endpoint: mean survival time, dose: 85.0 mg/kg/injection, schedule: Q01DX001 (ip), vehicle: saline) 126 % of control; (T/C endpoint: mean survival time, dose: 100.0 mg/kg/injection, schedule: Q01DX001 (ip), vehicle: saline) 141 % of control [9 of 10 alive].
With `C[n+]1ccc(Nc2ccc(NC(=O)c3ccc(Nc4cc[n+](C)c5ccc(N)cc45)cc3)cc2)cc1`, the T/C (T/C endpoint: mean survival time, dose: 16.0 mg/kg/injection, schedule: Q01DX009 (ip), vehicle: Klucel (hydroxypropylcellulose) (HPC)) was 130 % of control.
Turning to `N[C@H](C(=O)O)[C@@H]1CC(Cl)=NO1`, the T/C under setting [1] was 126 % of control; the T/C under setting [2] was 129 % of control [7 of 8 alive]; the T/C (T/C endpoint: median survival time, dose: 2.0 mg/kg/injection, schedule: Q01DX009 (ip), vehicle: saline) is 135 % of control [7 of 8 alive]; the T/C (T/C endpoint: median survival time, dose: 16.0 mg/kg/injection, schedule: Q01DX009 (ip), vehicle: saline) was 127 % of control.
On to `N[C@@H](Cc1ccc(N(CCCl)CCCl)cc1)C(=O)O`, for which the T/C is 147 % of control under setting [1]; 140 % of control (T/C endpoint: mean survival time, dose: 4.0 mg/kg/injection, schedule: Q01DX Z (ip), vehicle: carboxymethylcellulose (CMC)); 131 % of control under setting [2]; 126 % of control (T/C endpoint: mean survival time, dose: 9.0 mg/kg/injection, schedule: Q01DX001 (ip), vehicle: carboxymethylcellulose (CMC)); 131 % of control (T/C endpoint: mean survival time, dose: 14.0 mg/kg/injection, schedule: Q01DX001 (ip), vehicle: carboxymethylcellulose (CMC), evaluated on day 45); 128 % of control (T/C endpoint: mean survival time, dose: 14.0 mg/kg/injection, schedule: Q01DX001 (ip), vehicle: carboxymethylcellulose (CMC), run until all animals had died). Besides, the T/C runs as follows: (T/C endpoint: mean survival time, dose: 18.0 mg/kg/injection, schedule: Q01DX001 (ip), vehicle: carboxymethylcellulose (CMC)) 127 % of control; (T/C endpoint: mean survival time, dose: 21.0 mg/kg/injection, schedule: Q01DX001 (ip), vehicle: carboxymethylcellulose (CMC)) 135 % of control [9 of 10 alive]. Moreover, the survivor count is 10 of 10 (T/C endpoint: mean survival time, dose: 12.5 mg/kg/injection, schedule: Q01DX Z (ip), vehicle: carboxymethylcellulose (CMC)); 9 of 10 (T/C endpoint: mean survival time, dose: 16.0 mg/kg/injection, schedule: Q01DX009 (ip), vehicle: saline); 8 of 10 and 9 of 10 (T/C endpoint: mean survival time, dose: 25.0 mg/kg/injection, schedule: Q01DX Z (ip), vehicle: carboxymethylcellulose (CMC)); 9 of 10 (T/C endpoint: mean survival time, dose: 29.0 mg/kg/injection, schedule: Q01DX001 (ip), vehicle: carboxymethylcellulose (CMC)); 0 of 10, 2 of 10, 4 of 10 (T/C endpoint: mean survival time, dose: 50.0 mg/kg/injection, schedule: Q01DX Z (ip), vehicle: carboxymethylcellulose (CMC)); 0 of 10 (T/C endpoint: mean survival time, dose: 75.0 mg/kg/injection, schedule: Q01DX Z (ip), vehicle: carboxymethylcellulose (CMC)).
Consider `Cc1ccc(S(=O)(=O)NC(=O)N(CCCl)N=O)cc1`, for which, under “T/C endpoint: mean survival time, dose: 93.0 mg/kg/injection, schedule: Q01DX001 (ip), vehicle: other”, the T/C is 126 % of control [9 of 10 alive].
Regarding `NCCCCS(=O)(=O)Nc1ccc(Nc2c3ccccc3nc3cc([N+](=O)[O-])ccc23)cc1`, the survivor count was 9 of 10 (T/C endpoint: mean survival time, dose: 100.0 mg/kg/injection, schedule: Q01DX009 (ip), vehicle: saline) and 7 of 10 (T/C endpoint: mean survival time, dose: 200.0 mg/kg/injection, schedule: Q01DX009 (ip), vehicle: saline).
With `O=C(Nc1ccc(C2=NCCN2)cc1)c1cccc(C(=O)Nc2ccc(C3=NCCN3)cc2)c1`, the survivor count was 0 of 6 (T/C endpoint: mean survival time, dose: 62.0 mg/kg/injection, schedule: Q01DX Z (ip), vehicle: water); 1 of 6 (T/C endpoint: mean survival time, dose: 125.0 mg/kg/injection, schedule: Q01DX Z (ip), vehicle: water); 1 of 6 (T/C endpoint: mean survival time, dose: 250.0 mg/kg/injection, schedule: Q01DX Z (ip), vehicle: water); 0 of 6 (T/C endpoint: mean survival time, dose: 500.0 mg/kg/injection, schedule: Q01DX Z (ip), vehicle: water).
In the case of `O=NN(CCCl)C(=O)N[C@H]1CCCC[C@H]1O`, the T/C (T/C endpoint: mean survival time, dose: 12.0 mg/kg/injection, schedule: Q01DX001 (ip), vehicle: saline with Tween-80) was 131 % of control. Moreover, the survivor count was 9 of 10 (T/C endpoint: mean survival time, dose: 90.0 mg/kg/injection, schedule: Q01DX001 (ip), vehicle: saline with Tween-80); 10 of 10 (T/C endpoint: mean survival time, dose: 133.0 mg/kg/injection, schedule: Q01DX001 (ip), vehicle: saline with Tween-80); 9 of 10 (T/C endpoint: mean survival time, dose: 200.0 mg/kg/injection, schedule: Q01DX001 (ip), vehicle: saline with Tween-80).
In the case of `CCCC(=O)NC1=C(N2CC2)C(=O)C(NC(=O)CCC)=C(N2CC2)C1=O`, the T/C (T/C endpoint: mean survival time, dose: 2.0 mg/kg/injection, schedule: Q01DX009 (ip), vehicle: saline) was 131 % of control.
For `C[C@H](CN1CC(=O)NC(=O)C1)N1CC(=O)NC(=O)C1`, the T/C is 131 % of control (T/C endpoint: median survival time, dose: 32.0 mg/kg/injection, schedule: Q01DX009 (ip), vehicle: water, evaluated on day 30); 130 % of control (T/C endpoint: median survival time, dose: 32.0 mg/kg/injection, schedule: Q01DX009 (ip), vehicle: water, evaluated on day 31); 149 % of control (T/C endpoint: median survival time, dose: 64.0 mg/kg/injection, schedule: Q01DX009 (ip), vehicle: water, evaluated on day 30); 137 % of control [8 of 10 alive] (T/C endpoint: median survival time, dose: 64.0 mg/kg/injection, schedule: Q01DX009 (ip), vehicle: water, evaluated on day 31); 146 % of control (T/C endpoint: median survival time, dose: 128.0 mg/kg/injection, schedule: Q01DX009 (ip), vehicle: water, evaluated on day 31); 130 % of control [8 of 10 alive] (T/C endpoint: median survival time, dose: 128.0 mg/kg/injection, schedule: Q01DX009 (ip), vehicle: water, evaluated on day 36). The survivor count (T/C endpoint: median survival time, dose: 512.0 mg/kg/injection, schedule: Q01DX009 (ip), vehicle: water) is 9 of 10.
For `Cc1c(C)c(NC(=O)N(CCCl)N=O)c(C)c(C)c1NC(=O)N(CCCl)N=O`, the T/C (T/C endpoint: mean survival time, dose: 250.0 mg/kg/injection, schedule: Q01DX001 (ip), vehicle: other) is 141 % of control. The survivor count (T/C endpoint: mean survival time, dose: 1000.0 mg/kg/injection, schedule: Q01DX001 (ip), vehicle: other) is 6 of 10.
